# Assay results published in ChEMBL document CHEMBL5465560, “Selectivity Literature for EUbOPEN Chemogenomic Library” (2024).
# Sequences of proteins named here, by UniProt entry; tags and fusion partners are left off. A change or cut given only in a name is not applied to a line headed by its entry.
# UniProt Q59H18: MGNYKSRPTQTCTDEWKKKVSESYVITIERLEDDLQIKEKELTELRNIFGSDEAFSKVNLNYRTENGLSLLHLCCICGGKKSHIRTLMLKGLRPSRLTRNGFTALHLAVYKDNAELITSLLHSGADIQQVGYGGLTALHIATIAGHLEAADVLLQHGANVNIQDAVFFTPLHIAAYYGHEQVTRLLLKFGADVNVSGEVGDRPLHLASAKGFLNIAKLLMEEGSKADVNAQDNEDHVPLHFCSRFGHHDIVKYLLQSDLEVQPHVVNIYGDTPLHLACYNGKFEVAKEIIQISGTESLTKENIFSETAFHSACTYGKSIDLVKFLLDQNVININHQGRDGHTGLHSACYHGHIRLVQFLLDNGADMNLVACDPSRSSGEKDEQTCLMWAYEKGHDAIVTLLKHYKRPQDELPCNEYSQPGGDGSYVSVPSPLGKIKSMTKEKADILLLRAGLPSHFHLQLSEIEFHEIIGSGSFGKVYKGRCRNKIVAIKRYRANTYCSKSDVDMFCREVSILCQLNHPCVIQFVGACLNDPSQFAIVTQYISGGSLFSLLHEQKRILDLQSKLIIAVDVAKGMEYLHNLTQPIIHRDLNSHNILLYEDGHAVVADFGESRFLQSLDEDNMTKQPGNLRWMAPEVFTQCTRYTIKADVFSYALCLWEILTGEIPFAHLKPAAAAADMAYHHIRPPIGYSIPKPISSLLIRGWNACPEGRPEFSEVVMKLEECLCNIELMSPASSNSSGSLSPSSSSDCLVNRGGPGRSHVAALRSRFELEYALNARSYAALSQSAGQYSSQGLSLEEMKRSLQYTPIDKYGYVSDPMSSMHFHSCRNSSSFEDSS
# UniProt P48736: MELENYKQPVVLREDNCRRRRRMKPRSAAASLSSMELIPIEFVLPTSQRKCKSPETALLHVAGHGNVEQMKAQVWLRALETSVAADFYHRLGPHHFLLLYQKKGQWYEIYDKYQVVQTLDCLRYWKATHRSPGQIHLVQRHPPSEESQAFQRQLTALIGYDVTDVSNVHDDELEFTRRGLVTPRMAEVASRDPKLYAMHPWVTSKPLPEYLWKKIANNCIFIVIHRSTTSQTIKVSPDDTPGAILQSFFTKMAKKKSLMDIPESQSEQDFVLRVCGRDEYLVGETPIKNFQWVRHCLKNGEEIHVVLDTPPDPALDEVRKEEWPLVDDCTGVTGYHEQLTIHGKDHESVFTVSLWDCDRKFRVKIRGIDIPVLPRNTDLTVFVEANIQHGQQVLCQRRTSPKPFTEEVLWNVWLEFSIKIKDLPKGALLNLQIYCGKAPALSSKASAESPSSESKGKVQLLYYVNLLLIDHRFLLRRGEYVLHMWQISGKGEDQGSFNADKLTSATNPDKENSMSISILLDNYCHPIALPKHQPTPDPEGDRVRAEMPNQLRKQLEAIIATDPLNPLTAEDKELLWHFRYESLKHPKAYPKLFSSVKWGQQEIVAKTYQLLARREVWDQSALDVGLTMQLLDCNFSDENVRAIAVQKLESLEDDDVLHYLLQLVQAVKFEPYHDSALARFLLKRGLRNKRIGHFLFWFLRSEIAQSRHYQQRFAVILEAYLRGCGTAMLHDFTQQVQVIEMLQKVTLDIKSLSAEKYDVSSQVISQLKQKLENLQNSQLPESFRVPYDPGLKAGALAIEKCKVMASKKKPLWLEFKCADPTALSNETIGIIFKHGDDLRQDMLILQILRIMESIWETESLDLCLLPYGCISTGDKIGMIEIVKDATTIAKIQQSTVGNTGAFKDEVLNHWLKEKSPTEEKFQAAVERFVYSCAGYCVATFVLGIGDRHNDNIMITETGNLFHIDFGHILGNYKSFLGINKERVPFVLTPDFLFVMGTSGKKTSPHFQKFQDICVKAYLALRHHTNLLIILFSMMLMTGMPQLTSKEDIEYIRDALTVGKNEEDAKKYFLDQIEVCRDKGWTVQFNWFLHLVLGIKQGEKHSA
# UniProt P57078: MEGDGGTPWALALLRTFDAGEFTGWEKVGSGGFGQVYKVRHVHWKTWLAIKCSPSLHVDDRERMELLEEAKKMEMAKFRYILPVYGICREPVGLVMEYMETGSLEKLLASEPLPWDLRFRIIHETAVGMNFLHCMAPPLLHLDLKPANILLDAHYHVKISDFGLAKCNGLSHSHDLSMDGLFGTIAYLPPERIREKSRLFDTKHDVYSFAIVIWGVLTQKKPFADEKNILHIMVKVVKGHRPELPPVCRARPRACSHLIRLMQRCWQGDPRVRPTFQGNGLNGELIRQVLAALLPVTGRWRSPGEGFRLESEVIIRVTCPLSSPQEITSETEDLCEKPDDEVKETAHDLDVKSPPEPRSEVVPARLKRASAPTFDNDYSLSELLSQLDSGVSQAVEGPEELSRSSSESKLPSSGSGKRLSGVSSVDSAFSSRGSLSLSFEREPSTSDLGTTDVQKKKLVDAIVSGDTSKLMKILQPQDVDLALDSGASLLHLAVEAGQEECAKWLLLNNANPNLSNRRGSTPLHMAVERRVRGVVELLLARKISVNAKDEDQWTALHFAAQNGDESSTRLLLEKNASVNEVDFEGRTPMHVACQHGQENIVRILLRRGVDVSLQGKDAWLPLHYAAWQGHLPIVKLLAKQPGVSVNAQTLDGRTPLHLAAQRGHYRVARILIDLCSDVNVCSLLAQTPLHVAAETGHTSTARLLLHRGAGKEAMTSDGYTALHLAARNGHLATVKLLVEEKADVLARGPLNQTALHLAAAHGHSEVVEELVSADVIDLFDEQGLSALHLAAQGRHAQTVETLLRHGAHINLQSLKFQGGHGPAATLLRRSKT
# UniProt Q08345: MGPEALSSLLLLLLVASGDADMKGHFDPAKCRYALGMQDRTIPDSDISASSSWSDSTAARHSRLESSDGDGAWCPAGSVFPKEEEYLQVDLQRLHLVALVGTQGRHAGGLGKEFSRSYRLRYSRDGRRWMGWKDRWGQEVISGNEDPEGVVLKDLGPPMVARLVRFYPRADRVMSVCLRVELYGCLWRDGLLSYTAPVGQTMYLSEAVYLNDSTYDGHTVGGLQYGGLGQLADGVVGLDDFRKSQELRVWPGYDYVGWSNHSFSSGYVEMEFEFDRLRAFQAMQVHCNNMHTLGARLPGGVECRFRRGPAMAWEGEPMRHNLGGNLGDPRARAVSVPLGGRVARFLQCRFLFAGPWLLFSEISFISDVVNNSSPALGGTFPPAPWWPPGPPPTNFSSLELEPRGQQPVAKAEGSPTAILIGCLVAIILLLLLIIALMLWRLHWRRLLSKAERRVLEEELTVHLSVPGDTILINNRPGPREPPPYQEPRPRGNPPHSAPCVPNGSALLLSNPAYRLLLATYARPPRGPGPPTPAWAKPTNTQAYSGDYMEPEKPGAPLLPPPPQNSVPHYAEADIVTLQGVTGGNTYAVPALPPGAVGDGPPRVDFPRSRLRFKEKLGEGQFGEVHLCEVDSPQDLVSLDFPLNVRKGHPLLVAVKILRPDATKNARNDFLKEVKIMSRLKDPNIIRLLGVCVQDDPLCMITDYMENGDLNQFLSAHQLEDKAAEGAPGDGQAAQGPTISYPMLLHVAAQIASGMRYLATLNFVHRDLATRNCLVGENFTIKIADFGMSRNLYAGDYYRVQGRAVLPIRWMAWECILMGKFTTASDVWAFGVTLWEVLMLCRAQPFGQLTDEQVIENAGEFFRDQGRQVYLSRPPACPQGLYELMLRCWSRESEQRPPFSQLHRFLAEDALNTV
# UniProt P27037, whole entry: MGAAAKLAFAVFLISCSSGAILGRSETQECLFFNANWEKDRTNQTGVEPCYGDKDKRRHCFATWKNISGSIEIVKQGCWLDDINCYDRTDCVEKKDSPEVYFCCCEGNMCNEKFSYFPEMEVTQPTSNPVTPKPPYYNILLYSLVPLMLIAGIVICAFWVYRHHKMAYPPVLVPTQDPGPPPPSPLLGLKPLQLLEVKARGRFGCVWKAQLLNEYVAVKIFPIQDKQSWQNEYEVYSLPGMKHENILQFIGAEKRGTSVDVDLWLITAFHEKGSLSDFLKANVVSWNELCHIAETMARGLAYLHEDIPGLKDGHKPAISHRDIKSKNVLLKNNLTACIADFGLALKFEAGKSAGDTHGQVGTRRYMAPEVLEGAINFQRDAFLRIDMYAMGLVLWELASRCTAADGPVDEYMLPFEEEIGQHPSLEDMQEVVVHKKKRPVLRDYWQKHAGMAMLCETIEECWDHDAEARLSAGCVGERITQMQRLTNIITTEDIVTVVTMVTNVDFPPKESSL
# UniProt Q15418, whole entry: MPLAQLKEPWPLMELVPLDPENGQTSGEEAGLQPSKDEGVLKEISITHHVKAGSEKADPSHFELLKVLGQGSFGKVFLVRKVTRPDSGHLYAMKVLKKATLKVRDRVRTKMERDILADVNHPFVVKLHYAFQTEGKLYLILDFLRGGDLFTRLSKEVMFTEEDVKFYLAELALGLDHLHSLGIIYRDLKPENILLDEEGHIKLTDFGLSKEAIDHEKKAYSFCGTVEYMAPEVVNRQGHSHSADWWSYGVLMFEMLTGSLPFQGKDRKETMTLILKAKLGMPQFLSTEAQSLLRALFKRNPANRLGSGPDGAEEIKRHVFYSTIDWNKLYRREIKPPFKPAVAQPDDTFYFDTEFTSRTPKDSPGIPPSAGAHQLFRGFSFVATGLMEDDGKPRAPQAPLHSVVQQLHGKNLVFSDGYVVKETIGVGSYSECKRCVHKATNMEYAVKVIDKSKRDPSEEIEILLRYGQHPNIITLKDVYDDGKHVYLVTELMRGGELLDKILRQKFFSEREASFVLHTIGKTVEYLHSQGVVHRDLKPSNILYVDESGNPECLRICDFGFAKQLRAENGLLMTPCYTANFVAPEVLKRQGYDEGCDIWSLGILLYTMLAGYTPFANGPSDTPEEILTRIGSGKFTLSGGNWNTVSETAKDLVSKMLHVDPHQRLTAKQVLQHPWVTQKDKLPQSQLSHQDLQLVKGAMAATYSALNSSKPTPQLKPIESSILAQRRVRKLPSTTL
# UniProt P57058: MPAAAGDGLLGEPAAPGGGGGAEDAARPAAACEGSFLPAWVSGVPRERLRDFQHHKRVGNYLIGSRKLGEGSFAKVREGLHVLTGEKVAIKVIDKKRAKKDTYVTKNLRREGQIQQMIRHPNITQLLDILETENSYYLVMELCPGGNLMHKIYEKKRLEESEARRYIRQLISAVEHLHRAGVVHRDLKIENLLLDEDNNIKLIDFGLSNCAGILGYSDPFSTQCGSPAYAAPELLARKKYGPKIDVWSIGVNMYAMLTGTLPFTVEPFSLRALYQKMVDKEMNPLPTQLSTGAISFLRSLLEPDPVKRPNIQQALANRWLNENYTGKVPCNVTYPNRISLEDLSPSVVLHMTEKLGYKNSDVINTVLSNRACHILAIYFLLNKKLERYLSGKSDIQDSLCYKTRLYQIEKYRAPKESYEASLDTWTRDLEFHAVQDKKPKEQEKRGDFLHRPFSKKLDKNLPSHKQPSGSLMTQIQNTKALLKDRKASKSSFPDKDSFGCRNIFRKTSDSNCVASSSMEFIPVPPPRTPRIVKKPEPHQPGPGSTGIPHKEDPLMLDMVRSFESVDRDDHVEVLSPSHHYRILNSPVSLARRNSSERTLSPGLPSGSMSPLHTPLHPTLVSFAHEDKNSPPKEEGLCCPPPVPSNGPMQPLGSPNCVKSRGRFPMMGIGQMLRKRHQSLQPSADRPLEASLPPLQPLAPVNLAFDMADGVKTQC
# UniProt Q9H2K8: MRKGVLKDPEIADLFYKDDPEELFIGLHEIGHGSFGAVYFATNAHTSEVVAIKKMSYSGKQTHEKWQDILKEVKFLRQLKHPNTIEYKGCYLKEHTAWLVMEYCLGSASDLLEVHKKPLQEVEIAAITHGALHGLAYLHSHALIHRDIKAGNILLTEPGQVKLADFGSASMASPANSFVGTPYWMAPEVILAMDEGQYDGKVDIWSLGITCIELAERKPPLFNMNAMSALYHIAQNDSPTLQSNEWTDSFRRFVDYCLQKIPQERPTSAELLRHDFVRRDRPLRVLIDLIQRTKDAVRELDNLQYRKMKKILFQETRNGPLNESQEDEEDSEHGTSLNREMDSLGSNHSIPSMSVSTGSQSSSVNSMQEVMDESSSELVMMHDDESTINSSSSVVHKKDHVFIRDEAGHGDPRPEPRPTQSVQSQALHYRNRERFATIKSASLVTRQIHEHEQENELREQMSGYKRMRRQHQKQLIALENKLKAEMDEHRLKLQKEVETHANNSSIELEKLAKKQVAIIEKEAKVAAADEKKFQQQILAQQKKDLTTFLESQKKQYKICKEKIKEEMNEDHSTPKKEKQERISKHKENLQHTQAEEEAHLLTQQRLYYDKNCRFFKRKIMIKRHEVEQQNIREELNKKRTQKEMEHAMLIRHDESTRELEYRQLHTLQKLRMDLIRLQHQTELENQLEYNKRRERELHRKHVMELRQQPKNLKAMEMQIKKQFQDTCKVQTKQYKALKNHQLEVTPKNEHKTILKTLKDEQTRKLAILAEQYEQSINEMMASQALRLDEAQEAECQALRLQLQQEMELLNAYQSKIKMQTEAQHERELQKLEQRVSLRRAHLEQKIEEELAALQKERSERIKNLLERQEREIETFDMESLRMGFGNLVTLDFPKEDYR
# Key:
# Conditions in all cases: at 1 µM
# [1] = molecular target: Mitogen-activated protein kinase kinase kinase 15 (Homo sapiens) (UniProt Q6ZN16); assay: Selectivity interaction (KinomeScan (DiscoverX)) EUB0001581a MAP3K15
# [2] = molecular target: Serine/threonine-protein kinase TNNI3K (Homo sapiens) (UniProt Q59H18); assay: Selectivity interaction (KinomeScan (DiscoverX)) EUB0001581a TNNI3K
# [3] = molecular target: Serine/threonine-protein kinase ULK1 (Homo sapiens) (UniProt O75385); assay: Selectivity interaction (KinomeScan (DiscoverX)) EUB0001581a ULK1
# [4] = molecular target: NT-3 growth factor receptor (Homo sapiens, UniProt Q16288); assay: Selectivity interaction (KinomeScan (DiscoverX)) EUB0001581a NTRK3
# [5] = molecular target: Interleukin-1 receptor-associated kinase 3 (Homo sapiens) (UniProt Q9Y616); assay: Selectivity interaction (KinomeScan (DiscoverX)) EUB0001581a IRAK3
# [6] = molecular target: Vascular endothelial growth factor receptor 3 (Homo sapiens, UniProt P35916); assay: Selectivity interaction (KinomeScan (DiscoverX)) EUB0001581a FLT4
# [7] = molecular target: Mitogen-activated protein kinase kinase kinase 9 (Homo sapiens) (UniProt P80192); assay: Selectivity interaction (KinomeScan (DiscoverX)) EUB0001581a MAP3K9
# [8] = molecular target: Ephrin type-A receptor 3 (Homo sapiens) (UniProt P29320)
# [9] = molecular target: Serine/threonine-protein kinase MAK (Homo sapiens) (UniProt P20794); assay: Selectivity interaction (KinomeScan (DiscoverX)) EUB0001581a MAK
# [10] = molecular target: Ribosomal protein S6 kinase alpha-4 (Homo sapiens) (UniProt O75676); assay: Selectivity interaction (KinomeScan (DiscoverX)) EUB0001581a RPS6KA4
# [11] = molecular target: Myotonin-protein kinase (Homo sapiens) (UniProt Q09013)
# [12] = molecular target: Ephrin type-B receptor 2 (Homo sapiens) (UniProt P29323); assay: Selectivity interaction (KinomeScan (DiscoverX)) EUB0001581a EPHB2
# [13] = molecular target: Testis-specific serine/threonine-protein kinase 1 (Homo sapiens) (UniProt Q9BXA7); assay: Selectivity interaction (KinomeScan (DiscoverX)) EUB0001581a TSSK1B
# [14] = molecular target: Inhibitor of nuclear factor kappa-B kinase subunit epsilon (Homo sapiens) (UniProt Q14164); assay: Selectivity interaction (KinomeScan (DiscoverX)) EUB0001581a IKBKE
# [15] = molecular target: Serine/threonine-protein kinase SIK1 (Homo sapiens) (UniProt P57059); assay: Selectivity interaction (KinomeScan (DiscoverX)) EUB0001581a SIK1
# [16] = molecular target: Serine/threonine-protein kinase TAO1 (Homo sapiens) (UniProt Q7L7X3); assay: Selectivity interaction (KinomeScan (DiscoverX)) EUB0001581a TAOK1
# [17] = molecular target: Cyclin-dependent kinase 9 (Homo sapiens, UniProt P50750); assay: Selectivity interaction (KinomeScan (DiscoverX)) EUB0001581a CDK9
# [18] = molecular target: MAP/microtubule affinity-regulating kinase 3 (Homo sapiens) (UniProt P27448); assay: Selectivity interaction (KinomeScan (DiscoverX)) EUB0001581a MARK3
# [19] = molecular target: Phosphatidylinositol 4,5-bisphosphate 3-kinase catalytic subunit gamma isoform (Homo sapiens) (UniProt P48736); assay: Selectivity interaction (KinomeScan (DiscoverX)) EUB0001581a PIK3CG
# [20] = molecular target: Receptor-interacting serine/threonine-protein kinase 4 (Homo sapiens) (UniProt P57078); assay: Selectivity interaction (KinomeScan (DiscoverX)) EUB0001581a RIPK4
# [21] = molecular target: Cyclin-dependent kinase 13 (Homo sapiens, UniProt Q14004); assay: Selectivity interaction (KinomeScan (DiscoverX)) EUB0001581a CDK13
# [22] = molecular target: Epithelial discoidin domain-containing receptor 1 (Homo sapiens) (UniProt Q08345); assay: Selectivity interaction (KinomeScan (DiscoverX)) EUB0001581a DDR1
# [23] = molecular target: Phosphatidylinositol 5-phosphate 4-kinase type-2 gamma (Homo sapiens) (UniProt Q8TBX8); assay: Selectivity interaction (KinomeScan (DiscoverX)) EUB0001581a PIP4K2C
# [24] = molecular target: Atypical kinase COQ8A, mitochondrial (Homo sapiens, UniProt Q8NI60); assay: Selectivity interaction (KinomeScan (DiscoverX)) EUB0001581a ADCK3
# [25] = molecular target: Casein kinase I isoform gamma-1 (Homo sapiens) (UniProt Q9HCP0); assay: Selectivity interaction (KinomeScan (DiscoverX)) EUB0001581a CSNK1G1
# [26] = molecular target: Dual specificity tyrosine-phosphorylation-regulated kinase 1A (Homo sapiens, UniProt Q13627); assay: Selectivity interaction (KinomeScan (DiscoverX)) EUB0001581a DYRK1A
# [27] = molecular target: Mitogen-activated protein kinase 14 (Homo sapiens, UniProt Q16539); assay: Selectivity interaction (KinomeScan (DiscoverX)) EUB0001581a MAPK14
# [28] = molecular target: Tyrosine-protein kinase receptor TYRO3 (Homo sapiens) (UniProt Q06418); assay: Selectivity interaction (KinomeScan (DiscoverX)) EUB0001581a TYRO3
# [29] = molecular target: Activin receptor type-2A (Homo sapiens) (UniProt P27037); assay: Selectivity interaction (KinomeScan (DiscoverX)) EUB0001581a ACVR2A
# [30] = molecular target: Phosphatidylinositol 4-phosphate 5-kinase type-1 gamma (Homo sapiens) (UniProt O60331); assay: Selectivity interaction (KinomeScan (DiscoverX)) EUB0001581a PIP5K1C
# [31] = molecular target: Eukaryotic translation initiation factor 2-alpha kinase 1 (Homo sapiens) (UniProt Q9BQI3); assay: Selectivity interaction (KinomeScan (DiscoverX)) EUB0001581a EIF2AK1
# [32] = molecular target: Cyclin-G-associated kinase (Homo sapiens) (UniProt O14976); assay: Selectivity interaction (KinomeScan (DiscoverX)) EUB0001581a GAK
# [33] = molecular target: Aurora kinase B (Homo sapiens, UniProt Q96GD4); assay: Selectivity interaction (KinomeScan (DiscoverX)) EUB0001581a AURKB
# [34] = molecular target: Ribosomal protein S6 kinase alpha-1 (Homo sapiens, UniProt Q15418); assay: Selectivity interaction (KinomeScan (DiscoverX)) EUB0001581a RPS6KA1
# [35] = molecular target: Hormonally up-regulated neu tumor-associated kinase (Homo sapiens) (UniProt P57058); assay: Selectivity interaction (KinomeScan (DiscoverX)) EUB0001581a HUNK
# [36] = molecular target: Serine/threonine-protein kinase TAO3 (Homo sapiens) (UniProt Q9H2K8); assay: Selectivity interaction (KinomeScan (DiscoverX)) EUB0001581a TAOK3
# [37] = molecular target: Muscle, skeletal receptor tyrosine-protein kinase (Homo sapiens) (UniProt O15146); assay: Selectivity interaction (KinomeScan (DiscoverX)) EUB0001581a MUSK
# [38] = molecular target: Bone morphogenetic protein receptor type-2 (Homo sapiens) (UniProt Q13873); assay: Selectivity interaction (KinomeScan (DiscoverX)) EUB0001581a BMPR2
smiles,measurement,setting,value
C[C@@H]1C[C@H](N)C[C@H](c2ccncc2NC(=O)c2ccc(F)c(-c3c(F)cccc3F)n2)C1,% of control,[1],100%
same,% of control,[2],100%
same,% of control,[3],100%
same,% of control,[4],91%
same,% of control,[5],97%
same,% of control,[6],100%
same,% of control,[7],93%
same,% of control,[8],95%
same,% of control,[9],91%
same,% of control,[10],90%
same,% of control,[11],95%
same,% of control,[12],100%
same,% of control,[13],98%
same,% of control,[14],93%
same,% of control,[15],100%
same,% of control,[16],38%
same,% of control,[17],100%
same,% of control,[18],98%
same,% of control,[19],34%
same,% of control,[20],100%
same,% of control,[21],100%
same,% of control,[22],98%
same,% of control,[23],100%
same,% of control,[24],83%
same,% of control,[25],84%
same,% of control,[26],70%
same,% of control,[27],100%
same,% of control,[28],100%
same,% of control,[29],100%
same,% of control,[30],100%
same,% of control,[31],100%
same,% of control,[32],100%
same,% of control,[33],98%
same,% of control,[34],73%
same,% of control,[35],100%
same,% of control,[36],40%
same,% of control,[37],100%
same,% of control,[38],100%
